Results: patent US5468587A, “Hydrogen bond accepting groups on thermal solvents for image separation systems” (Eastman Kodak Company, priority 1993, dated 1995)

Experiments:
[1] = heat activated transfer of image dye (coupler M-1, developer CD-2) through gelatin interlayer to polymeric dye receiver, Status A green density; conditions: for Obs. Green Density, 1-pass Rec / Obs. Green Density, 3-pass Rec: coupler M-1, CD-2, receiver, rollers 110° C.; for Obs. Green Density, 3-pass Rec: 3 passes; for Obs. Green Density, Integral: coupler M-1, CD-2 developer, integral film before transfer
[2] = heat activated transfer of image dye (yellow coupler Y-1, developer CD-2) through gelatin interlayer to polymeric dye receiver, Status A blue density; conditions: coupler Y-1, CD-2; for Obs. Blue Density, Integral: integral film; for Obs. Blue Density, Receiver 0-pass: receiver without thermal processing; for Obs. Blue Density, Receiver 3-pass: 3 passes
Protocol: Heat Activated Image Transfer. Dried integral films are laminated with gelatin subbed ESTAR™ film base and passed through a set of heated rollers at 0.635 cm./sec. with roller surface temperatures of 110° C. and a pressure of 140 kPa. The two film bases are separated; the gelatin layers adhere to the gelatin subbed ESTAR™ base and are thus separated from the polymeric dye receiver layer and its support. Status A reflection densitometry is obtained on the polymeric dye-receiver layer coated on a reflective support. These density values determined with the appropriate Status A filter are given in Example 1 in Table III.
Thermal Solvent Test Employing a Yellow Dye Forming Coupler. Three film examples are prepared in a manner analogous to examples 1 and 2 above, using a yellow dye forming coupler, Y-1, and a blue sensitized cubic emulsion in place of M-1 and a green sensitized emulsion, respectively. In this example TS-1 is compared with no added hydroxybenzene compound and with a hydroxybenzene without a hydrogen bond accepting functional group (CS-1). The thermal solvent [drawing 8] test layer is coated at gelatin laydown of 1.40 g/m^2 and a thermal solvent test compound at 1.30 g/m^2. The dye generating layer is coated at 1.40 g/m^2 of gelatin, 0.53 g/m^2 of coupler Y-1 and 0.38 g/m^2 of Ag. The photographic development and thermal processing is as described in example 2. In these examples the gelatin layers of the integral developed films are removed from the dye receiver layer prior to thermal processing by strippping with adhesive films. These film samples, free of the dye generating gelatin layers, are referred to as 0-pass receivers and illustrate the dye density transfer that occurs in the treatment steps prior to thermal treatment. The original or integral DlogE scales of both example films are similar.
The films described above in examples 12-14 are exposed and processed in a developer solution in which an equimolar change of the color developer is made from CD-3 to CD-2. All other components in the developer solution are unchanged in identity and concentration except as required to adjust the pH of the developer solution. After image development these films are dried and thermally processed as described in examples 12 through 14. […] Comparative compound CS-1, a hydroxybenzene without a hydrogen bond accepting functional group, transfers less than 4% of the integral dye density to the receiver layer.

[3] = heat activated transfer of image dye (coupler M-1, developer CD-3) through gelatin interlayer to polymeric dye receiver, Status A green density; conditions: for net image density in the polymeric dye-receiver layer (green): step with integral density 2.11, CD-3; for Obs. Green Density, 1-pass Rec / Obs. Green Density, 3-pass Rec: coupler M-1, CD-3, receiver, rollers 110° C.; for Obs. Green Density, 3-pass Rec: 3 passes; for Obs. Green Density, Integral: coupler M-1, CD-3 developer, integral film before transfer
Protocol: The following 17 examples are prepared to examine the ability of materials to effect the transfer of image dye through intervening layers of gelatin binder into a polymeric dye receiver layer and are described by the coating format shown in FIG. 2. The first layer (FIG. 2, layer 14) contains gelatin binder and the material to be tested as a thermal solvent while the upper layer (FIG. 2, layer 16) contains the image generating chemistry comprising a silver chloride emulsion and a dispersion of a dye generating coupler in a gelatin binder. A third, protective overcoat, layer (FIG. 2, layer 15) containing gelatin and hardener is applied over the first two gelatin test layers.
Examples 1 and 2 describe in detail the preparation of the solutions and dispersions used in these examples. Examples 3 and 4 describe the same film samples processed in a second developer. Example 1 contains no added material in the first gelatin layer. Example 2 is an example of a compound of our invention according to formula I.
Gelatin Interlayer Melt Preparation. This is an interlayer consisting of only gelatin that serves as a control for comparison of the effect of added materials on transfer of heat-transferable dyes through gelatin layers. To 2.4 g of ethyl acetate is added, with stirring, a warm solution consisting of 28.8 g of melted and filtered 12.5% gelatin and 4.3 g of a 10% solution of surfactant-A (Alkanol XC™, DuPont) in 54.5 g of distilled water. This mixture is dispersed by three passes through a Gaulin Dispersion Mill set at a gap of 0.125 mm. To 60 g of this dispersion is added 1.5 g of a 10% solution of surfactant-B (Active Olin 10G™), 63.7 g of distilled water and 4.8 g of melted and filtered 12.5% gelatin to prepare a coating melt. [drawing 6]
Dispersion Melt Preparation. To a warmed mixture of 8.064 g of coupler M-1 and 24.50 g of ethyl acetate is added, with stirring, a warmed solution of 134.4 g of 12.5% gelatin in 236.2 g of distilled water and 16.8 g of a 10% solution of surfactant-A. This mixture is dispersed by three passes through a Gaulin Dispersion Mill with a gap of 0.125 mm. To 337.5 g of this dispersion is added 8.10 g of a 10% solution of surfactant-B, 489.6 g of distilled water and 64.8 g of 12.5% gelatin.
Emulsion Melt Preparation. To 84.2 g of an undoctored AgCl cubic emulsion spectrally sensitized with a green sensitizing dye is added 53.3 g of 12.5% gelatin and 474 g of distilled water. The resulting melt has a silver content of 16.0 g of silver per kg of melt.
Protective Overcoat Melt Preparation. To 1840 g of distilled water is added 384 g of melted 12.5% gelatin and 36 g of a 10% solution of surfactant-B. Within one minute of coating the protective overcoat 140 g of a 1.8% solution of the hardening agent, bis-(vinylsulfonyl)methane, is added.
Film Formation. The thermal solvent dispersion is coated on the corona discharge treated polymeric receiver layer paper base at an aim laydown of 1.60 g/m^2 for the gelatin. This paper base (Kodak Thermal Print Receiver NS Paper) consists essentially of a polycarbonate layer overcoated with a polycaprolactam layer on a titanium dioxide tinted paper. Over the first gelatin layer is coated the silver halide emulsion and chromogenic image generating layer as follows: 30 g of the emulsion melt described above is added to 100 g of the coupler dispersion melt. This image dye generating layer has an aim laydown of 1.60 g of gelatin per m^2, 0.26 g of silver per m^2 and 0.38 g of coupler per m^2. After overcoating with the protective overcoat/hardener layer with an aim laydown of 1.08 g gelatin per m^2 and at a level of 1.35% hardener relative to total gelatin, the coating is stored for 4 days prior to processing.
Photographic Processing. Several examples of each of film example 1 are individually exposed on a Kodak 1-B sensitometer with a 0.01 sec white light exposure through a HA-50 infrared filter and a 21 step 0 to 3.0 density step tablet. […]

Row | SMILES | Obs. Green Density, 1-pass Rec [1] | Obs. Green Density, 3-pass Rec [1] | Obs. Green Density, Integral [1] | Obs. Blue Density, Integral [2] | Obs. Blue Density, Receiver 0-pass [2] | Obs. Blue Density, Receiver 1-pass [2] | Obs. Blue Density, Receiver 3-pass [2] | net image density in the polymeric dye-receiver layer (green) ([3]; 1-pass) | net image density in the polymeric dye-receiver layer (green) ([3]; 3-pass) | Obs. Green Density, 1-pass Rec [3] | Obs. Green Density, 3-pass Rec [3] | Obs. Green Density, Integral [3]
1 | CCCCCCCCCCS(=O)(=O)c1ccc(O)cc1 [TS-1, 4-n-Decylsulfonylphenol] | 1.265 | 1.439 | 2.11 | 2.06 | 0.127 | 0.986 | 1.389 | 0.93 | 1.45 | 0.980 | 1.495 | 2.11
2 | CCCCCCCCCOc1ccc(O)cc1 [TS-6] | – | – | – | – | – | – | – | – | – | 0.230 | 0.410 | 2.20
3 | CCCCCCCCSc1ccc(O)cc1 [TS-5] | 0.212 | 0.390 | 1.93 | – | – | – | – | – | – | 0.112 | 0.094 | 2.18
4 | CCCCCCCCCCCCc1ccc(O)cc1 [CS-1] | – | – | – | 2.07 | 0.081 | 0.079 | 0.089 | – | – | – | – | –
